According to article PMC11221361:
No constants are given. Whether binding was seen depends on the method and setting. In cells and extracts the contact can be indirect. Some binding calls cover weakened binding; strength is not graded here. Tags and fused reporters may be left off the sequences shown.

Chains of the proteins cited; added tags and fusions are not shown.
UniProt P36012: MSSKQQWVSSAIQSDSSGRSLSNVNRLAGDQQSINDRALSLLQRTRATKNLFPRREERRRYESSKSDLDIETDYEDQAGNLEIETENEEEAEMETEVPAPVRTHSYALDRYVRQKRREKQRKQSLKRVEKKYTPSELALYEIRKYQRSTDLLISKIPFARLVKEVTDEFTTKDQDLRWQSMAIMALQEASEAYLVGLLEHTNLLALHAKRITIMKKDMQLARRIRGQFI

B1: 9xmyc-tagged Kre6 (protein, UniProt P32486 1-720)
chain: MPLRNLTETHNFSSTNLDTDGTGDDHDGAPLSSSPSFGQQNDNSTNDNAGLTNPFMGSDEESNARDGESLSSSVHYQPQGSDSSLLHDNSRLDLSQNKGVSDYKGYYSRNNSRAVSTANDNSFLQPPHRAIASSPSLNSNLSKNDILSPPEFDRYPLVGSRVTSMTQLNHHGRSPTSSPGNESSASFSSNPFLGEQDFSPFGGYPASSFPLMIDEKEEDDYLHNPDPEEEARLDRRRFIDDFKYMDKRSASGLAGVLLLFLAAIFIFIVLPALTFTGAIDHESNTEEVTYLTQYQYPQLSAIRTSLVDPDTPDTAKTREAMDGSKWELVFSDEFNAEGRTFYDGDDPYWTAPDVHYDATKDLEWYSPDASTTVNGTLQLRMDAFKNHGLYYRSGMLQSWNKVCFTQGALEISANLPNYGRVSGLWPGLWTMGNLGRPGYLASTQGVWPYSYESCDAGITPNQSSPDGISYLPGQKLSICTCDGEDHPNQGVGRGAPEIDVLEGETDTKIGVGIASQSLQIAPFDIWYMPDYDFIEVYNFTTTTMNTYAGGPFQQAVSAVSTLNVTWYEFGEYGGYFQKYAIEYLNDDDNGYIRWFVGDTPTYTIHAKALHPDGNIGWRRISKEPMSIILNLGISNNWAYIDWQYIFFPVVMSIDYVRIYQPSNAISVTCDPSDYPTYDYIQSHLNAFQNANLTTWEDAGYTFPKNILTGKCTSSKFKLSS

Columns and labels:
[1] = biological target: T1, 9xmyc-tagged Kre6 (S. cerevisiae) (UniProt P32486); test: co-IP; myc-tagged Kre6 or Okp1 precipitated from yeast whole-cell lysate with anti-myc overnight, then Protein G dynabeads for 2 h at 4°C; same IP lysis buffer; washed 3 times; Western blot for 3xHA-Cse4
T1 sequence: B1 chain

[2] = biological target: 3xHA-tagged Cse4^CENP-A (S. cerevisiae) (UniProt P36012); test: co-IP; HA-tagged Cse4 precipitated from yeast whole-cell lysate with anti-HA agarose overnight; IP lysis buffer 50 mM HEPES, 200 mM sodium acetate, 0.25% NP-40, 1 mM EDTA, 5 mM magnesium acetate, 5% glycerol, 3 mM DTT; washed 3 times; Western blot with anti-myc and anti-HA

Molecule	binding [1]	binding [2]
3xHA-tagged Cse4^CENP-A (from UniProt P36012 1-229)	binds	–
B1	–	binds
